Data taken from patent publication US20240207277A1, “Methods For Treating Drug and Vaccine Induced Immune Thrombocytopenia by Administering Specific Compounds” (Principia Biopharma Inc., priority 2021, published 2024).
At least one compound was matched to its structure with a doubt left.

Test system: 251-kinase panel
Assay: 251-kinase panel selectivity
Assay type: biochemical
Conditions: 1 μM

## C=CC(=O)N1CCC[C@@H](n2nc(-c3ccc(Oc4ccccc4)cc3)c3c(N)ncnc32)C1 [ibrutinib]
  number of kinases with >90% inhibition: 21 kinases
